The source of these data is PMC7758625.

These are yes or no findings as the source states them, for the method shown. Some results given as binding are weak or reduced against the parent protein; the word gives no strength.

One experiment addresses T1, Pex5 (S. cerevisiae) (UniProt P35056).
T1 sequence: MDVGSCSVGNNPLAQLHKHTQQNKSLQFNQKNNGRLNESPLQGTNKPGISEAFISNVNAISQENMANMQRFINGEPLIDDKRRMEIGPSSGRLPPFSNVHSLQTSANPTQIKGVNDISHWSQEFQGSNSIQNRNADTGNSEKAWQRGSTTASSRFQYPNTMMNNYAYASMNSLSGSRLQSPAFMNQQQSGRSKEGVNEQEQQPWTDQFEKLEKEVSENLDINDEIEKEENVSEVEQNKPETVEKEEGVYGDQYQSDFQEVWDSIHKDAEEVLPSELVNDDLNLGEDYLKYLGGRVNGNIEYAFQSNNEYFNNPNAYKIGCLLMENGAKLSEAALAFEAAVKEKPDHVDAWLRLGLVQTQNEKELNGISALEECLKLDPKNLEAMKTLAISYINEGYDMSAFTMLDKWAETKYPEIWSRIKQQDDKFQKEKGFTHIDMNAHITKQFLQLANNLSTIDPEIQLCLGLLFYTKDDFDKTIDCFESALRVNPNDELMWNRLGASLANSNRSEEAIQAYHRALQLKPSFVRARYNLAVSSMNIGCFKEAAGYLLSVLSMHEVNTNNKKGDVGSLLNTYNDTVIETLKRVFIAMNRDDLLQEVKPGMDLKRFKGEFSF
The experiment in a line: two-hybrid; S. cerevisiae PJ69-4A co-transformed with pPC86 (Gal4 activation domain) and pPC97 (Gal4 binding domain) plasmids in different combinations; three clones each replicated on 2% Glu-YNB -Leu -Trp -His + 5 mM 3-AT, 3-6 d; n=3.

For experiment [1], the target named is T2, Mdh3 (peroxisomal iso-enzyme of Mdh2) (S. cerevisiae) (UniProt P32419).
T2 sequence: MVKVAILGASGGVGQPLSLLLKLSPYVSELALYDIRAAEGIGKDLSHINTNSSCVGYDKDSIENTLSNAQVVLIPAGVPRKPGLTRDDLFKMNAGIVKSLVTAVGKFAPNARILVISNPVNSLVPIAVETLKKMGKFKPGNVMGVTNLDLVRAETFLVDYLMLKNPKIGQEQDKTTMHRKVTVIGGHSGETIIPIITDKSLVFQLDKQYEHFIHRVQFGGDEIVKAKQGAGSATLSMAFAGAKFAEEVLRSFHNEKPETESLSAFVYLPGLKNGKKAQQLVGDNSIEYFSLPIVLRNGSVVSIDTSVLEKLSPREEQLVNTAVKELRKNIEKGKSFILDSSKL
Described as above.

B1: Mdh3 (peroxisomal iso-enzyme of Mdh2) (enzyme, UniProt P32419 1-343)
chain: T2 sequence
For the molecule B1, the binding result with Pex5 (S. cerevisiae) is “binds”.

B2: malate dehydrogenase 2 (Mdh2) (enzyme, UniProt P22133 1-377)
chain: MPHSVTPSIEQDSLKIAILGAAGGIGQSLSLLLKAQLQYQLKESNRSVTHIHLALYDVNQEAINGVTADLSHIDTPISVSSHSPAGGIENCLHNASIVVIPAGVPRKPGMTRDDLFNVNAGIISQLGDSIAECCDLSKVFVLVISNPVNSLVPVMVSNILKNHPQSRNSGIERRIMGVTKLDIVRASTFLREINIESGLTPRVNSMPDVPVIGGHSGETIIPLFSQSNFLSRLNEDQLKYLIHRVQYGGDEVVKAKNGKGSATLSMAHAGYKCVVQFVSLLLGNIEQIHGTYYVPLKDANNFPIAPGADQLLPLVDGADYFAIPLTITTKGVSYVDYDIVNRMNDMERNQMLPICVSQLKKNIDKGLEFVASRSASS
Regarding B2, the values for the binding entry (in the experiment with Pex5 (S. cerevisiae); in experiment [1]) were “no binding” and “binds”, respectively.
